Data published in patent US20150079590A1, “CHARACTERIZATION AND ANALYSIS OF THE COMPOSITION AND DYNAMICS OF THE MAMMALIAN RIBOPROTEOME” (Beth Israel Deaconess Medical Center, Inc., priority 2013, published 2015).

Tested on: LARP1 and RpL4 in PPC1 cells
Test: Western blot of individual sucrose gradient fractions of PPC1 cell lysates treated with DMSO or PP242
Type: cell-based, human
Procedure: Polysome profiles were prepared from MEF and different prostate cancer cell lines as follows. MEF were seeded at 2×10^6 cells/15 cm and PPC1, PC3, Du145, RWPE1 and PWR1E cells seeded at 10×10^6 cells/15 cm dish and cultured overnight to ensure sub confluent cultures for polysome analysis. PPC1 cells were treated the following day with either DMSO, rapamycin (20 nM) or PP242 (500 nM) for three hours. For polysome preparation, cells were then incubated with cycloheximide at a final concentration of 100 μg/mL for a period of 15 mins. Plates were then washed with ice-cold PBS containing 100 μg/mL cycloheximide (PBS/CHX), scraped, and collected in ice-cold PBS/CHX. […] Lysates were centrifuged at 7,000 rpm for 5 min at 4° C., and the supernatant carefully removed. Protein concentrations for lysates were measured by Bradford assay, and equal amounts of protein loaded on a 15%-50% sucrose gradient containing 100 μg/mL cycloheximide, 0.2 mg/mL heparin and 1 mM DTT. Gradients were centrifuged at 36,000 rpm for 3 hrs at 4° C. in a Beckman SW40 rotor, and subsequently fractionated using an ISCO-Foxy Jr. fraction collector. Polysome profiles were reordered using a UA-6 absorbance detector connected to the fraction collector and measuring absorbance at 254 nm. […]

CC(C)n1nc(-c2cc3cc(O)ccc3[nH]2)c2c(N)ncnc21 [PP242]
shift of LARP1 and RpL4 across sucrose gradient fractions: can be readily observed
